Here are results for 21 molecules from US20250388687A1.

Chains of the proteins cited; added tags and fusions are not shown. Residues count along the entry.
UniProt P32927, residues 17-443: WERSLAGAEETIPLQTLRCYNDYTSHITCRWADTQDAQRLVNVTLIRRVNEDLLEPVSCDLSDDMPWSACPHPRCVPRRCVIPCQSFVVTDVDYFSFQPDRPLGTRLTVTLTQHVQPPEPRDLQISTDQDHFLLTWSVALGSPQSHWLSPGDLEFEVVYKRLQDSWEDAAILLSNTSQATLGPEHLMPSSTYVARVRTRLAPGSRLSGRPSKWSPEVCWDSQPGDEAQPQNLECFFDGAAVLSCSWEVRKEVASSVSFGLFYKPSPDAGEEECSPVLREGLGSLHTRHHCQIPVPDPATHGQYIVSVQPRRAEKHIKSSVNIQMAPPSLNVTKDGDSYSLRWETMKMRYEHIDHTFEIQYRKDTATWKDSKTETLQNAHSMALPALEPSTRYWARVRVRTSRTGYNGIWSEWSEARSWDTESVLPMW

Results are given in words; binding and its absence hold for the method and conditions named. Some results given as binding are weak or reduced against the parent protein; the word gives no strength.

B1: anti-CD131 antibody clonotype 16 (Table 6) (antibody, V domains shown)
VH: EVQLVESGGGLVQPGGSLKLSCAASGFTFSSSDMHWVRQTTGKGLEWVSAIYTTGDTYYPGSVKGRFTISRENAKNSLYLQMNSLRAGDTAVYYCARGYSGSYYGDFDYWGQGTLVTVSS
VL: SYELTQPPSVSVSPGQTARITCSGDALPKKYAYWYQQKSGQAPVLVIYEDSKRPSGIPERFSGSSSGTMATLTISGAQVEDEADYYCYSTDSSGNRVFGGGTKLTVL
B2: anti-CD131 antibody clonotype 15 (Table 6) (antibody, V domains shown)
VH: EVQLVESGGGLVQPGGSLRLSCAASGFTFSSYSMNWVRQAPGKGLEWVSYISSSSSTIYYADSVKGRFTISRDNAKNSLYLQMNSLRDEDTAVYYCARDGWDYWGQGTLVTVSS
VL: SYELTQPSSVSVSPGQTARITCSGDVLAKKYARWFQQKPGQAPVLVIYKDSERPSGIPERFSGSSSGTTVTLTISGAQVEDEADYYCYSAADNNRVFGGGTKLTVL
B3: anti-CD131 antibody clonotype 115 (Table 6) (antibody, V domains shown)
VH: EVQLVESGGGLVQPGGSLRLSCAASGFTFSSYDMHWVRQATGKGLEWVSAIGTAGDTYYPGSVKGRFTISRENAKNSLYLQMNSLRAGDTAVYYCARDRTLDYWGQGTLVTVSS
VL: SYELTQPPSVSVSPGQTARITCSGDALPKKYAYWYQQKSGQAPVLVIYEDSKRPSGIPERFSGSSSGTMATLTISGAQVEDEADYYCYSTDSSGNHWVFGGGTKLTVL
B4: anti-CD131 antibody clonotype 123 (Table 6) (antibody, V domains shown)
VH: EVQLVESGGGLVKPGGSLRLSCAASGFTFSDAWMYWDRQAPGKGLEWVGRIKSKTDGGTTDYAAPVKGRFTISRDDSKNTLYLQMNSLKTEDTAVYYCRADMDVWGKGTTVTVSS
VL: SYELTQPPSVSVSPGQTARITCSGDALPKKYAYWYQQKSGQAPVLVIYEDSKRPSGIPERFSGSSSGTMATLTISGAQVEDEADYYCYSIDSSGNHRVFGGGTKLTVL
B5: anti-CD131 antibody clonotype 52 (Table 6) (antibody, V domains shown)
VH: EVQLVESGGGLVKPGGSLRLSCIASGFTFSTYSMNWVRQAPGKGLEWVSSISGSSSYIYYSDSVKGRFTISRDNAKNSLYLQLNSLRAEDTAVYYCASHWGHFDYWGRGTLVTVSS
VL: SYELTQPLSVSVALGQTARITCGGNNIGSKNVHWYQQKPGQAPVLVIYRDSNRPSGIPERFSGSNSGNTATLTISRAQAGDEADYYCQVWDSSTVVFGGGTKLTVL
B6: anti-CD131 antibody clonotype 36 (Table 6) (antibody, V domains shown)
VH: QVQLQQWGAGLLKPSETLSLTCAVYGGSFSGYYWSWIRQPPGKGLEWIGEINHSGSTNYNPSLKSRVTISVDTSKNQFSLKLSSVTAADTAVYYCAREGLLVGATLDAFDIWGQGTMVTVSS
VL: SSELTQDPAVSVALGQTVRITCQGDSLRSYYASWYQQKPGQAPVLVIYGKNNRPSGIPDRFSGSSSGNTASLTITGAQAEDEADYYCNSRDSSGNHLVFGTGTKVTVL
B7: anti-CD131 antibody clonotype 14 (Table 6) (antibody, V domains shown)
VH: EVQLVESGGGVVRPGGSLRLSCAASGFTFDDYGMSWVRQAPGKGLEWVSGINWNGGSTGYADSVKGRFTISRDNAKNSLYLQMNSLRAEDTALYYCARERLTIFGVVNYYMDVWGKGTTVTVSS
VL: QSVLTQPPSVSGAPGQRVTISCTGSSSNIGAGYDVHWYQQLPGTAPKLLIYGNSNRPSGVPDRFSGSKSGTSASLAITGLQAEDEADYYCQSYDSSLSGWVFGGGTKLTVL
B8: anti-CD131 antibody clonotype 8 (Table 6) (antibody, V domains shown)
VH: QLQLQESGPGLVKPSETLSLTCTVSGGSISSSSYYWGWIRQPPGKGLEWIGSIYYSGSTYYNPSLKSRVTISVDTSKNQFSLKLSSVTAADTAVYYCASLTGDRFDYWGQGTLVTVSS
VL: QSALTQPASVSGSPGQSITISCTGTSSDVGGYNYVSWYQQHPGKAPKLMIYEVSNRPSGVSNRFSGSKSGNTASLTISGLQAEDEADYYCSSYTSSSTVVFGGGTKLTVL
B9: anti-CD131 antibody clonotype 25 (Table 6) (antibody, V domains shown)
VH: QVQLVQSGAEVKKPGASVKVSCKASGYTFTSYGISWVRQAPGQGLEWMGWISAYNGNTNYAQKLQGRVTMTTDTSTSTAYMELRSLRSDDTAVYYCARENSGSYYWFDPWGQGTLVTVSS
VL: QSALTQPPSASGSPGQSVTISCTGTSSDVGGYNYVSWYQQHPGKAPKLMIYEVSKRPSGVPDRFSGSKSGNTASLTVSGLQAEDEADYYCSSYAGSNNVVFGGGTKLTVL
B10: anti-CD131 antibody clonotype 116 (Table 6) (antibody, V domains shown)
VH: QVQLVQSGAEAKKPGASVKVSCMASGYTFTTYGISWVRQAPGQGLEWMGWISAYNGNTKYAQKLQGRVTMTTDTSTRTAYMELRSLRSDDTAVYYCARQIGDYWGQGTLVTVSS
VL: QSALTQPPSASGSPGQSVTISCTGTSSDVGGYNYVSWYQQHPGKAPKLMIYEVIKRPSGVPDRFSGSKSGNTASLTVSGLQAEDEADYYCSAYAGSNNVVFGGGTQLTVL
B11: anti-CD131 antibody clonotype 45 (Table 6) (antibody, V domains shown)
VH: QVQLQQWGAGLLKPSETLSLTCAVYGGSFSGYYWSWIRQPPGKGLEWIGEINHSGSTNYNPSLKSRVTISVDTSKNQFSLKLSSVTAADTAVYYCARTSLAAADFDYWGQGTLVTVSS
VL: QSALTQPPSASGSPGQSVTISCTGTSSDVGGYNYVSWYQQHPGKAPKLMIYEVSKRPSGVPDRFSGSKSGNTASLTVSGLQAEDEADYYCSSYAGSNNYVFGTGTKVTVL
B12: clonotype 356 (EPOR/CD131 binders, Table 8) (antibody, V domains shown)
VH: EVQLVESGGGLVQPGGSLRLSCAASGFTFSSYWMSWVRQAPGKGLEWVANIKQDGSEKYYVDSVKGRFTISRDNAKNSLYLQMNSLRAEDTAVYYCARTPGYSSSWYEGPYFDYWGQGTLVTVSS
VL: SYELTQPPSVSVSPGQTARITCSGDALPKKYAYWYQQKSGQAPVLVIYEDSKRPSGIPERFSGSSSGTMATLTISGAQVEDEADYYCYSTDSSGNHVVFGGGTKLTVL
B13: clonotype 365 (EPOR/CD131 binders, Table 8) (antibody, V domains shown)
VH: QVQLVQSGAEVKKPGASVKVSCKASGFTFTSYYIHWVRQAPGQGLEWMGIITPSGGTTSYAQKFQGRVTMTRDTSTSTVYMELSSLRSEDTAVYYCARRVLWFGELRDYFYYMDVWGKGTTVTISS
VL: SYELTQPPSVSVSPGQTARITCSGDALPKKYAYWFQQKSGQAPVLVIYEDSKRPSGIPERFSGSSSGTMATLIISGAQVEDEADYYCYSTDSSGNHVVFGGGTKLTVL
B14: clonotype 368 (EPOR/CD131 binders, Table 8) (antibody, V domains shown)
VH: QLQLQESGPGLVKPSETLALTCTVSGGSISSIIYYWGWIRQPPGKGLEWIGNVYYSGSIYYNPSLKSRVTISVDTSKNQFSLKLSSVTAADTAVYYCARQNWGSDAFDIWGQGTMVTVSS
VL: SYELTQPLSLSVALGQTARITCGENNIGSRNVHWYQQKPGQAPVLVIYRDSDRPSGIPERFSGSNSGNTATLTISRAQAGDEADYFCQVWDSSTAVFGGGTKLTVL
B15: clonotype 360 (EPOR/CD131 binders, Table 8) (antibody, V domains shown)
VH: QVQLQQWGAGLLKPSETLSLTCAVYGGSFSGHYWNWIRQPPGKGLEWIGEINHSGFTNYNPSLKSRVTISVDTPKNQFPLNLSSVTAADTAVYYCAREGLTGHVFDIWGQGTMVTVSS
VL: QTVVTQEPSLTVSPGGTVTLTCASSTGAVTSGYYPNWFQQKPGQAPRALIYSTSNKHSWTPARFSGSLLGGKAALTLSGVQPEDEAEYYCLLYYGGAQVFGGGTKLTVL
B16: clonotype 364 (EPOR/CD131 binders, Table 8) (antibody, V domains shown)
VH: EVQLVESGGGLVKPGGSLRLSCAASGFTFSSYSMNWVRQAPGKGLEWVSSISSSSSYIYYADSVKGRFTISRDNAKNSLYLQMNSLRAEDTAVYYCARDYRPYYDILTGYSHFDYWGQGTLVTVSS
VL: SSELTQDPAVSVALGQTVRITCQGDSLRSYYASWYQQKPGQAPVLVIYGKNNRPSGIPDRFSGSSSGNTASLTITGAQAEDEADYYCNSRDSSGNHVVFGGGTKLTVL
B17: clonotype 369 (EPOR/CD131 binders, Table 8) (antibody, V domains shown)
VH: QVQLQQWGAGLLKPSETLSLTCAVYGGSFSGYYWSWIRQPPGKGLEWIGEINHSGNTNYNPSLKSRVTISVDTSKNQFSLKLSSVTAADTAVYYCARGELGIGYWYFDLWGRGTLVTVSS
VL: SSELTQDPAVSVALGQTVRITCQGDSLRSYYASWYQQKPGQAPVLVIYGKNNRPSGIPDRFSGSSSGNTASLTITGAQAEDEADYYCNSRDSSGNHVVFGGGTKLTVL
B18: clonotype 380 (EPOR/CD131 binders, Table 8) (antibody, V domains shown)
VH: QVQLVQSGAEVKKPGASVKVSCKASGYTFITYGISWVRQAPGQGLEWMGWISSYNGNTNYAQKLQGRVTMTRDTSTSTAYMELRSLRSDDTAVYYCARAPGGDCSSTSCYKWNYDPYYFDYWGQGTLVTVSS
VL: QSALTQPASVSGSPGQSITISCTGTSSDVGGYNHVSWYQQNPGKAPKLMIYDVSKRPSGVSNRFSGSKSGNTASLTISGLQAEDEADYYCCSYAGSSTLVFGGGTKLTVL
B19: clonotype 361 (EPOR/CD131 binders, Table 8) (antibody, V domains shown)
VH: QVQLQQWGAGLLKPSETLSLTCAVYGGFLRGYYWSWIRQPPGKGLEWIGEINHSGSTNYNPSLKSRVTISVDTAENQFSLKLNSVTAADTAVYYCAREGLTGHTFDIWGQGTMVTVSS
VL: QSALTQPASVSGSPGQSITISCTGTSSDVGGYNYVSWYQQHPGKAPKLMIYDVSKRPSGVSNRFSGSKSGNTASLTISGLQAEDEADYYCCSYAGSSTVVFGGGTKLTVL
B20: clonotype 366 (EPOR/CD131 binders, Table 8) (antibody, V domains shown)
VH: QMQLQESGPGLVRPSETLSLTCTVSGGSISTRSYYWGWIRQPPGKGLEWIGSVFYSGSTYYNPSLKSRVAISVDTSKNQFSLKVNSVTAADTAVFYCVRQGYDSWTGYSFFYFDYWGQGTLVTVSS
VL: QSALTQPPSASGSPGQSVTISCTGTSSDVGGYNYVSWYQQHPGKAPKLMIYEVSKRPSGVPDRFSGSKSGNTASLTVSGLQAEDEADYYCSSYAGSNNLVFGGGTKLTVL
B21: clonotype 363 (EPOR/CD131 binders, Table 8) (antibody, V domains shown)
VH: QVQLVQSGAEVKKPGASVKVSCKASGYIFSNYGICWVRQAPGQGLEWMGWINPYNVNRNYAQSLQGRVTMTTDTSTNSAYMELRSLKSDDTAVYFCARGVWGSYRSHSYYTFMDVWGKGTTVTVSS
VL: SYELTQPSSVSVSPGQAARITCSGNLLAKKYPRWFLQKPGQAPIMLTHTDCERPSGIPERFSGSSSGTTVTLTISGAQVEDEADYYCFSAADNTSVFDGGTNLTVL

The target in the first test is hCD131-Fc (IME021, in house) (human) (UniProt P32927). Put plainly: flow sorting of B cells of immunised ATX-GL mice stained with fluorescent hCD131-Fc, then single-cell sequencing.
Regarding B1, the binding entry is recorded as “binds”. Still for that read-out and setting: in the case of B2 it was “binds”; in that of B3, “binds”; in that of B4, “binds”. Consider B5, for which the binding result is “binds”.

As for B6, the binding entry is reported as “binds”. Consider B7, for which the binding entry is “binds”. On the same count and under the same terms, in the case of B8 it was “binds”. The same measure, in the same setting: in the case of B9 it was “binds”. Same read-out and setting: in the case of B10 it was “binds”; in that of B11, “binds”.

For a further test the target is unchanged. Put plainly: B-cell sorting with labelled hEPOR-Fc and hCD131-Fc, double-positive population.
Regarding B12, the binding entry was “binds”.

Turning to B13, the binding entry is reported as “binds”.

B14: the binding result is listed as “binds”. Turning to B15, the binding entry is listed as “binds”. On the same count and under the same terms, in the case of B16 it was “binds”; in that of B17, “binds”. Same read-out and setting: the same measure for B18: “binds”; for B19: “binds”; for B20: “binds”. Same read-out and setting: the same measure for B21: “binds”.
